The results in this text go back to patent publication US20250353875 (published 2025).

The nature of the data set: general procedure: Fmoc solid-phase peptide synthesis. Particulars: late stage modification step.

On to “Fmoc-Ile-MeGly-Aze (2)-MeCha-MeGly-Asp (OMe)-pip”, for which the step yield is listed as 83%.
The same measure for “Fmoc-Thr (tBu)-MeAla-Cys (StBu)-Phe-Asp (OMe)-pip”: 82%.
